From patent US12037415B2, “Peptide and pharmaceutical composition for treating an eye disease comprising the same as an active pharmaceutical ingredient” (YuYu Pharma, Inc., priority 2017, dated 2024)
Some entries share one result that the patent states for a list of compounds. Non-standard residues stand in square brackets, D forms with d. Residues, ends and D or L forms follow the SMILES beside them. ξ: configuration not given here. Pro(4,4-Me2) = CC1(C)CN[C@H](C(=O)O)C1; Hyp = O=C(O)[C@@H]1C[C@@H](O)CN1; Ile(3ξ) = CCC(C)[C@H](N)C(=O)O; hSer = N[C@@H](CCO)C(=O)O

Key:
[1] = tested on: rats with dry eye syndrome (extraorbital lacrimal gland excision, ELGE); experiment: Amount of tear secretion (Schirmer test, cobalt chloride paper) in rats with ELGE-induced dry eye syndrome; type: in vivo, rat; details: 0.3% solution vs 3% DS
Source text: (§1) In order to evaluate the eye protection effect on dry eye syndrome by YDE-001 to YDE-028 prepared in Working Example 1, a total of 320 Sprague-Dawley-type male rats (OrientBio, Seungnam, Korea) were adapted for 7 days. Thereafter, dry eye syndrome was induced in 264 test rats through extraorbital lacrimal gland excision (hereinafter, ELGE). 8 test rats without the eye abnormality were subjected to a sham operation as a control group.
(§2) The rats were systemically anesthetized by inhaling a mixed gas of 2% to 3% of isoflurane (Hana Pharm. Co., Hwasung, Korea), 70% of N2O, and 28.6% of O2 using a rodent anesthesia machine (Surgivet, Waukesha, Wis., USA) and a ventilator (Model 687, Harvard Apparatus, Cambridge, UK). Thereafter, the extraorbital lacrimal gland located in the subdermal area above the masseter muscle and under the optic nerve was excised through a transverse incision in a size of 10 mm on the anterior part of the left ear tragus. The skin was sutured by a general method. […] After 6 days following the ELGE operation, confirmation was performed through the Schirmer test by measuring the amount of tear secretion whether dry eye syndrome had been induced. Meanwhile, each rat of the control group with the sham operation was checked for the presence and location of the extraorbital lacrimal gland through a skin incision, and the skin was then sutured without the excision thereof (FIG. 134).
(§3) In addition, in order to evaluate the eye protection effect on dry eye syndrome by YDE-029 to YDE-043 prepared in Working Example 1, a total of 200 Sprague-Dawley-type male rats (OrientBio, Seungnam, Korea) were adapted for 7 days. Dry eye syndrome was induced in 165 test rats through the ELGE. 8 test rats without the eye abnormality were subjected to the sham operation as a control group. The ELGE was carried out as described above.
(§4) For YDE-001 to YDE-028, YY-102 and the 28 YDE-series were each dissolved in physiological saline at a concentration of 3 mg/ml and administered at a dose of 5 μl/eye at 9:30 am and 3:30 pm daily for 14 days after 7 days from the ELGE operation for a total of 28 times. The DS solution was dissolved in physiological saline at a concentration of 30 mg/ml and administered at a dose of 5 μl/eye twice a day for 14 days after 7 days from the ELGE operation for a total of 28 times. For the sham control and the ELGE control groups, the same stimulation as the administration was applied. In order to prevent excessive eye dryness, the same volume of physiological saline was applied in the same manner in place of the test substances.
as §4, with “Further, For YDE-029” for “For YDE-001”, “Further, For YDE-029 to YDE-043,” for “For YDE-001 to YDE-028,”, “YDE-029 to YDE-043, YY-102 and” for “YDE-001 to YDE-028, YY-102 and”, “and the 15 YDE-series were” for “and the 28 YDE-series were”, “the test substances (FIG. 137).” for “the test substances.”
After 6 days from the ELGE surgery, the changes in the amount of tear secretion were measured at day 7 and day 14 after the administration of YDE-001 to YDE-043. The amount of tear secretion was measured by the […] travel distance of tears absorbed by cobalt chloride paper in a size of 1×15 mm (Toyo Roshi Kaisha, Japan).
The cobalt chloride paper was placed in the lateral canthus of a rat for 60 seconds to absorb tears (FIG. 139). The length of the area absorbed from the corner of the cobalt chloride paper was measured with an electronic digital caliper (Mytutoyo, Tokyo, Japan) (FIG. 138).

[2] = tested on: cornea of rats with dry eye syndrome (ELGE); experiment: Corneal permeability of fluorescent dye (corneal damage) in rats with ELGE-induced dry eye syndrome; type: in vivo, rat; details: 0.3% solution vs 3% DS
Source text: as §1, §2, §3, §4
as §4, with “Further, For YDE-029” for “For YDE-001”, “Further, For YDE-029 to YDE-043,” for “For YDE-001 to YDE-028,”, “YDE-029 to YDE-043, YY-102 and” for “YDE-001 to YDE-028, YY-102 and”, “and the 15 YDE-series were” for “and the 28 YDE-series were”, “the test substances (FIG. 137).” for “the test substances.”
After YDE-001 to YDE-028 were each administered to the eyes […], the changes in the corneal permeability were checked.
In order to measure the corneal permeability, Zolethyl 50™ (Virbac Lab., Carros, France), an animal anesthetic, was intraperitoneally injected at a dose of 25 mg/kg. Thereafter, saline containing a 1% (v/v) fluorescent solution (fluorescein sodium salt, Tokyo Kasei Kogyo Co., Tokyo, Japan) was applied to the eyes at a dose of 5 μl/eye. The eyes thus treated were closed and fixed with a tape. After 1 hour, the remaining fluorescent solution was removed using a cotton swab (FIG. 142). […]

Question: What does the source list for CC(C)C[C@H](NC(=O)CNC(=O)[C@H](CCC(=O)O)NC(=O)[C@H](CCC(N)=O)NC(=O)CNC(=O)[C@@H]1C[C@@H](O)CN1)C(=O)N[C@@H](C)C(=O)NCC(=O)N1CCC[C@H]1C(=O)N[C@@H](CCCCN)C(=O)O [YDE-001, HyP-Gly-Gln-Glu-Gly-Leu-Ala-Gly-Pro-Lys] (H-[Hyp]GQEGLAGPK-OH)?
Answer: Increase of the amount of tear secretion as compared with the DS reference group ([1]; study of YDE-001 to YDE-028): more than 20%; Decrease of the permeability of the fluorescent dye as compared with the DS reference group ([2]; study of YDE-001 to YDE-028): more than 20%

Question: CC(C)C[C@H](NC(=O)CNC(=O)[C@H](C)NC(=O)[C@H](CCC(N)=O)NC(=O)CNC(=O)[C@@H]1C[C@@H](O)CN1)C(=O)N[C@@H](C)C(=O)NCC(=O)N1CCC[C@H]1C(=O)N[C@@H](CCCCN)C(=O)O [YDE-008, HyP-Gly-Gln-Ala-Gly-Leu-Ala-Gly-Pro-Lys] (H-[Hyp]GQAGLAGPK-OH) was tested. Which “Increase of the amount of tear secretion as compared with the DS reference group” value (“Increase of the amount of tear secretion” for short) ([1]; study of YDE-001 to YDE-028) did it give?
Answer: more than 20%

Question: What about the “Decrease of the permeability of the fluorescent dye as compared with the DS reference group” value (shortened to “Decrease”) ([2]; study of YDE-001 to YDE-028) of the same molecule?
Answer: more than 20%

Question: With CC(C)C[C@H](NC(=O)CNC(=O)[C@H](CC(C)C)NC(=O)[C@H](CCC(N)=O)NC(=O)CNC(=O)[C@@H]1C[C@@H](O)CN1)C(=O)N[C@@H](C)C(=O)NCC(=O)N1CCC[C@H]1C(=O)N[C@@H](CCCCN)C(=O)O [YDE-011, HyP-Gly-Gln-Leu-Gly-Leu-Ala-Gly-Pro-Lys] (H-[Hyp]GQLGLAGPK-OH) as the molecule, how does the “Increase of the amount of tear secretion” value ([1]; study of YDE-001 to YDE-028) read?
Answer: more than 20%

Question: What about the “Decrease” value ([2]; study of YDE-001 to YDE-028) of the same molecule?
Answer: more than 20%

Question: Which “Increase of the amount of tear secretion” value ([1]; study of YDE-001 to YDE-028) does the source give for CC(C)C[C@H](NC(=O)[C@@H](NC(=O)[C@H](CC(=O)O)NC(=O)[C@H](CCC(N)=O)NC(=O)CNC(=O)[C@@H]1C[C@@H](O)CN1)C(C)C)C(=O)N[C@@H](C)C(=O)NCC(=O)N1CCC[C@H]1C(=O)N[C@@H](CCCCN)C(=O)O [YDE-015, HyP-Gly-Gln-Asp-Val-Leu-Ala-Gly-Pro-Lys] (H-[Hyp]GQDVLAGPK-OH) here?
Answer: more than 20%

Question: And the “Decrease” value ([2]; study of YDE-001 to YDE-028)?
Answer: more than 20%

Question: Which results are given for CCC(C)[C@H](NC(=O)[C@H](CC(=O)O)NC(=O)[C@H](CCC(N)=O)NC(=O)CNC(=O)[C@@H]1C[C@@H](O)CN1)C(=O)N[C@@H](CC(C)C)C(=O)N[C@@H](C)C(=O)NCC(=O)N1CCC[C@H]1C(=O)N[C@@H](CCCCN)C(=O)O (stereo partly drawn) [YDE-016, HyP-Gly-Gln-Asp-Ile-Leu-Ala-Gly-Pro-Lys] (H-[Hyp]GQD[Ile(3ξ)]LAGPK-OH)?
Answer: Increase of the amount of tear secretion as compared with the DS reference group ([1]; study of YDE-001 to YDE-028): more than 20%; Decrease of the permeability of the fluorescent dye as compared with the DS reference group ([2]; study of YDE-001 to YDE-028): more than 20%

Question: What does the source list for CC(C)C[C@H](NC(=O)[C@H](CO)NC(=O)[C@H](CC(=O)O)NC(=O)[C@H](CCC(N)=O)NC(=O)CNC(=O)[C@@H]1C[C@@H](O)CN1)C(=O)N[C@@H](C)C(=O)NCC(=O)N1CCC[C@H]1C(=O)N[C@@H](CCCCN)C(=O)O [YDE-023, HyP-Gly-Gln-Asp-Ser-Leu-Ala-Gly-Pro-Lys] (H-[Hyp]GQDSLAGPK-OH)?
Answer: Increase of the amount of tear secretion as compared with the DS reference group ([1]; study of YDE-001 to YDE-028): more than 20%; Decrease of the permeability of the fluorescent dye as compared with the DS reference group ([2]; study of YDE-001 to YDE-028): more than 20%

Question: For CC(C)C[C@H](NC(=O)CNC(=O)[C@H](CCO)NC(=O)[C@H](CCC(N)=O)NC(=O)CNC(=O)[C@@H]1C[C@@H](O)CN1)C(=O)N[C@@H](C)C(=O)NCC(=O)N1CCC[C@H]1C(=O)N[C@@H](CCCCN)C(=O)O [YDE-026, HyP-Gly-Gln-Ser(Homo)-Gly-Leu-Ala-Gly-Pro-Lys] (H-[Hyp]GQ[hSer]GLAGPK-OH), which “Increase of the amount of tear secretion” value ([1]; study of YDE-001 to YDE-028) is on record?
Answer: more than 20%

Question: And the “Decrease” value ([2]; study of YDE-001 to YDE-028)?
Answer: more than 20%

Question: What does the source list for CC(C)C[C@H](NC(=O)CNC(=O)[C@H](CC(C)C)NC(=O)[C@H](CCC(N)=O)NC(=O)CNC(=O)[C@@H]1CC(C)(C)CN1)C(=O)N[C@@H](C)C(=O)NCC(=O)N1CCC[C@H]1C(=O)N[C@@H](CCCCN)C(=O)O [YDE-040, (4-Dimethyl)Pro-Gly-Gln-Leu-Gly-Leu-Ala-Gly-Pro-Lys] (H-[Pro(4,4-Me2)]GQLGLAGPK-OH)?
Answer: Increase of the amount of tear secretion as compared with the DS reference group ([1]; study of YDE-029 to YDE-043): more than 20%; Decrease of the permeability of the fluorescent dye as compared with the DS reference group ([2]; study of YDE-029 to YDE-043): more than 20%

Question: What does the source list for CC(C)C[C@H](NC(=O)CNC(=O)[C@H](CC(C)C)NC(=O)[C@H](CCC(N)=O)NC(=O)CNC(=O)[C@@H]1C[C@@H](O)CN1)C(=O)O [YDE-042, HyP-Gly-Gln-Leu-Gly-Leu] (H-[Hyp]GQLGL-OH)?
Answer: Increase of the amount of tear secretion as compared with the DS reference group ([1]; study of YDE-029 to YDE-043): more than 20%; Decrease of the permeability of the fluorescent dye as compared with the DS reference group ([2]; study of YDE-029 to YDE-043): more than 20%

Question: Which “Increase of the amount of tear secretion” value ([1]; study of YDE-029 to YDE-043) does the source give for CC(C)C[C@H](NC(=O)[C@H](CCC(N)=O)NC(=O)CNC(=O)[C@@H]1C[C@@H](O)CN1)C(=O)NCC(=O)O [YDE-043, HyP-Gly-Gln-Leu-Gly] (H-[Hyp]GQLG-OH) here?
Answer: more than 20%

Question: And the “Decrease” value ([2]; study of YDE-029 to YDE-043)?
Answer: more than 20%
